According to the supplement of paper PMC10849652:
The list shows a part of the results.

By UniProt entry, the sequences of proteins in these tests, tags left out. Where a name states a change or a piece, a line headed by the entry shows the natural chain unless it says otherwise.
UniProt P55199: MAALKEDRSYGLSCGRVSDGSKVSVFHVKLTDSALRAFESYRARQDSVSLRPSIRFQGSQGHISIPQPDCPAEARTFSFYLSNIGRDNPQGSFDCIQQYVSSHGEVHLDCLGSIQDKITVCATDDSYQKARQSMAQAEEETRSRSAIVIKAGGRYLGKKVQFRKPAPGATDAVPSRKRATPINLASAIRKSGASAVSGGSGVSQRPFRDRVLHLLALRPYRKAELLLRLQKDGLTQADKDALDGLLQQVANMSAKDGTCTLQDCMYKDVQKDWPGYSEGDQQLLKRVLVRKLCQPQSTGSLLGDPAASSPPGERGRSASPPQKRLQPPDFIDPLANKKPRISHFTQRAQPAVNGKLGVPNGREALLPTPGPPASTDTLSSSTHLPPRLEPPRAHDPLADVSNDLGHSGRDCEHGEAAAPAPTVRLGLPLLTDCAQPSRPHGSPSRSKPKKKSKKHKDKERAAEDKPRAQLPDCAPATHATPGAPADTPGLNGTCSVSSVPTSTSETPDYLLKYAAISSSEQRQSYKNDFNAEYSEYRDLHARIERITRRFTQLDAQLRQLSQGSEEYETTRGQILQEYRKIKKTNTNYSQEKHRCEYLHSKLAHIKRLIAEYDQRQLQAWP
UniProt P19525: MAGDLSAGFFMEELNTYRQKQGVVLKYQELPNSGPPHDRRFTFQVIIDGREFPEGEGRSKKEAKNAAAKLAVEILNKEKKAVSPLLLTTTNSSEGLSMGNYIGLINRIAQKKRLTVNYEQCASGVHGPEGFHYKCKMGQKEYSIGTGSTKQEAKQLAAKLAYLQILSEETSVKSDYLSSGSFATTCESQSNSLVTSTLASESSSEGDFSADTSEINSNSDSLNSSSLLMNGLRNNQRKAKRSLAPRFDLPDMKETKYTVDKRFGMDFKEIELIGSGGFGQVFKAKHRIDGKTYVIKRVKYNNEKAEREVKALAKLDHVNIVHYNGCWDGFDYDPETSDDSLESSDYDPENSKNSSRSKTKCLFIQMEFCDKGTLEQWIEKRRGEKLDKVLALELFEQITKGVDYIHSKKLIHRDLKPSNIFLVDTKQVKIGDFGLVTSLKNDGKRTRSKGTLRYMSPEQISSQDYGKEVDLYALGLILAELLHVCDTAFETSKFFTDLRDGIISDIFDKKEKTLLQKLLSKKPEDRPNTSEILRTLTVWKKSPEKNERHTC
UniProt P63241: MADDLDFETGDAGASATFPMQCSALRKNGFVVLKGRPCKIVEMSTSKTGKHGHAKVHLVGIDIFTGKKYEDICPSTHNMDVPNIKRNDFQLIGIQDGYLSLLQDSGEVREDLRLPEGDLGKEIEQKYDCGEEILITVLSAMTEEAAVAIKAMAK
UniProt O43768: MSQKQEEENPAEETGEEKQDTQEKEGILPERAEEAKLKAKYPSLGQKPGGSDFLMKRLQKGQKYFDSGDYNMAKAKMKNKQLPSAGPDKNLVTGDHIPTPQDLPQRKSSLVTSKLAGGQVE
UniProt Q99613, whole entry, looked up: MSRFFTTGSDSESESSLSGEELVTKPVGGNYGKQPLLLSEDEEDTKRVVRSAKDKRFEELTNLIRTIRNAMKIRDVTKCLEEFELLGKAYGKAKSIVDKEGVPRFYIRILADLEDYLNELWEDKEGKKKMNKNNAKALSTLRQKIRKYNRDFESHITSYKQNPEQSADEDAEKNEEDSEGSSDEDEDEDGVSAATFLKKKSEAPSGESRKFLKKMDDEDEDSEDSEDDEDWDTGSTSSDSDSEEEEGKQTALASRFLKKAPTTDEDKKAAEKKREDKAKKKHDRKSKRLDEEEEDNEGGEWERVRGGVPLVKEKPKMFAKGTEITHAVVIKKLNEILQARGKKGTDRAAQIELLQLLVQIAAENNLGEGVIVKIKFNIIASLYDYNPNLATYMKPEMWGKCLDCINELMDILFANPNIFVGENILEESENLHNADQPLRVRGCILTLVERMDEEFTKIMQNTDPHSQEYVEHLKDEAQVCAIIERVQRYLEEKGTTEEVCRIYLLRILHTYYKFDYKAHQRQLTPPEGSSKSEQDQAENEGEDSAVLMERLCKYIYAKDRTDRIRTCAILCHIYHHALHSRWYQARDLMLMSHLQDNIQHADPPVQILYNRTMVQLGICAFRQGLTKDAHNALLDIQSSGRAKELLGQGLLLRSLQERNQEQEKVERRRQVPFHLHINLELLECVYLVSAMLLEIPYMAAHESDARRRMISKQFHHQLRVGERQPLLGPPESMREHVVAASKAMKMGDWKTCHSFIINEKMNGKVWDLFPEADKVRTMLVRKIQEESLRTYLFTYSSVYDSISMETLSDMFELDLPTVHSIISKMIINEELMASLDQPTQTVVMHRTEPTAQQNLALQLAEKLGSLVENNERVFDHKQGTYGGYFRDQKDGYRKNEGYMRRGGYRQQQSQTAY
UniProt P49770: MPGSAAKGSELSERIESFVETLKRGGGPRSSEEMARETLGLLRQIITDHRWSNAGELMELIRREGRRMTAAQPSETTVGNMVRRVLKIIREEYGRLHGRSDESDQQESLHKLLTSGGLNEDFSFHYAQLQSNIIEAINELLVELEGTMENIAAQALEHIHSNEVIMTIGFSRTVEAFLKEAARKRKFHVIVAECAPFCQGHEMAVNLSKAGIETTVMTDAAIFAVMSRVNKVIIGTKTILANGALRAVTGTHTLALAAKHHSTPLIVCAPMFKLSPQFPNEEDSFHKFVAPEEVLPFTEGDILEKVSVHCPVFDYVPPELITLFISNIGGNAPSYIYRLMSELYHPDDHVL
UniProt Q9UHY7: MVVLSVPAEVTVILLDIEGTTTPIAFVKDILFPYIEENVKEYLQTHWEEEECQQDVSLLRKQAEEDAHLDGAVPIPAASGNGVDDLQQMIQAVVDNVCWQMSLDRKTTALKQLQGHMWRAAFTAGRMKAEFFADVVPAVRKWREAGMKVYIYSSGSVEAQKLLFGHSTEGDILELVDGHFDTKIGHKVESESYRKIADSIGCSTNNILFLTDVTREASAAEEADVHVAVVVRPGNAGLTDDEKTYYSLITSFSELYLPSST
UniProt Q9H9T3: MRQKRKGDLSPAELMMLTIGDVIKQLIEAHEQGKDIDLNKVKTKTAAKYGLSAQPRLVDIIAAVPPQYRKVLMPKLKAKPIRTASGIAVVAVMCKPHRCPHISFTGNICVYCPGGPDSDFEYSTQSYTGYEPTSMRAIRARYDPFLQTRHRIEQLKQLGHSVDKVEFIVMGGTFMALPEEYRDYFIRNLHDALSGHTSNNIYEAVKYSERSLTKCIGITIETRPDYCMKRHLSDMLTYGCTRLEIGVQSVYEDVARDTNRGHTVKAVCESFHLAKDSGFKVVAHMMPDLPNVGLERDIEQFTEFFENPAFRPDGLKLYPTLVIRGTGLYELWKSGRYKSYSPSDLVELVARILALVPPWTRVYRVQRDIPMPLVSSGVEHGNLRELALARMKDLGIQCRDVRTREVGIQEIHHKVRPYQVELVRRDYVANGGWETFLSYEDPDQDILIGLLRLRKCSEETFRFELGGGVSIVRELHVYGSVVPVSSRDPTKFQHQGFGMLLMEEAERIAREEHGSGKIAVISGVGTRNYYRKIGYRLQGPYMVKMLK
UniProt Q9NYP7: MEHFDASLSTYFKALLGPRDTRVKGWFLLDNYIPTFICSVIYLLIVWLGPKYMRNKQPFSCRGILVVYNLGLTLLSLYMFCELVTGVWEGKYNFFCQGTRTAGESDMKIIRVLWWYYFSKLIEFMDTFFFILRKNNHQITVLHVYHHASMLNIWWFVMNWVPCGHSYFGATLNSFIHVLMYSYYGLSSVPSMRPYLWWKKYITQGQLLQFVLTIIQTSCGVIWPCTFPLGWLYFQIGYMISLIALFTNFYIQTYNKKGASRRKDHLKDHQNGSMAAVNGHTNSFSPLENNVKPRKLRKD
UniProt Q5NDL2: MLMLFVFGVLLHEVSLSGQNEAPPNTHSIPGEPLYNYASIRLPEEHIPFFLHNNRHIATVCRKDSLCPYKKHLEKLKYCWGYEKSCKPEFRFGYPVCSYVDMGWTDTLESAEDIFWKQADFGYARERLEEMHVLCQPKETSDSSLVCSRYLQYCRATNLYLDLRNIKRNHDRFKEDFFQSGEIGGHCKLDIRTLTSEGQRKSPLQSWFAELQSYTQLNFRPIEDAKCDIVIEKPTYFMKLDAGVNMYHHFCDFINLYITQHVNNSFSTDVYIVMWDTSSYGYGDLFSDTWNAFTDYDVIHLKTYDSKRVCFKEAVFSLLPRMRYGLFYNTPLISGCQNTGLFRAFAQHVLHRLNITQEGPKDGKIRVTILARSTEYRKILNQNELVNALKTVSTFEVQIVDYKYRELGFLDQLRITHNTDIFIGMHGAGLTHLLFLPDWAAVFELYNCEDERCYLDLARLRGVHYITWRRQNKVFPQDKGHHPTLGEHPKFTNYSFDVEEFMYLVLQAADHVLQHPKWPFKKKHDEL
UniProt Q96RQ1: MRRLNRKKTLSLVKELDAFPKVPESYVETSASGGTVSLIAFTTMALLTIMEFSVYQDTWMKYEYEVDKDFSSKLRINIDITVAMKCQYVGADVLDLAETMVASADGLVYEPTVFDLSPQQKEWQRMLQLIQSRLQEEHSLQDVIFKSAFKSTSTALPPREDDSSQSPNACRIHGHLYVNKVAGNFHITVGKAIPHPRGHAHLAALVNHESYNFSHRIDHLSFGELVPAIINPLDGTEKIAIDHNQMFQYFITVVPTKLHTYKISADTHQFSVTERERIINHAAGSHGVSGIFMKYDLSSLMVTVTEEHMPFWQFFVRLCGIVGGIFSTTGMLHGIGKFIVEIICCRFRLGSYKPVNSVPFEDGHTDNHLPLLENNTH

Columns and labels:
Assay in all cases: log2 fold change, soluble protein after heating vs DMSO (PISA); higher = thermal stabilisation; K562 lysate, 10 uM; active = over 0.2 and 3.5 SD of the protein, either way, in both replicates (recomputed)
vemurafenib = compound: CCCS(=O)(=O)Nc1ccc(F)c(C(=O)c2c[nH]c3ncc(-c4ccc(Cl)cc4)cc23)c1F [vemurafenib]
Procedure, shortened: (§1)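 K562 pellets were dounce-homogenised in PBS pH 7.4 containing 1 mM MgCl2, and the crude extract, at 1 mg/mL protein, was exposed to 10 μM compound for 30 min. Aliquots were heated for 3 min across 48°C-58°C, pooled, brought to 0.5% NP-40 at 4°C and spun at 21,000xg for 90 min, with the supernatant taken as soluble protein. TMTpro 16plex LC-MS/MS with equalised channel sums quantified that protein. Values are log-two fold changes in thermal stability relative to solvent controls, taken from duplicates.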

[1] = compound: CCCS(=O)(=O)Nc1ccc(F)c(C(=O)c2c[nH]c3ncc(Cl)cc23)c1F
Procedure, shortened: as §1

barasertib = compound: CCN(CCCOc1ccc2c(Nc3cc(CC(=O)Nc4cccc(F)c4)[nH]n3)ncnc2c1)CCOP(=O)(O)O [barasertib]
Procedure, shortened: as §1

[2] = compound: CC[C@@H]1C(=O)N(C)c2cnc(Nc3ccc(C(=O)NC4CCN(C)CC4)cc3OC)nc2N1C1CCCC1
Procedure, shortened: as §1

volasertib = compound: CC[C@@H]1C(=O)N(C)c2cnc(Nc3ccc(C(=O)N[C@H]4CC[C@H](N5CCN(CC6CC6)CC5)CC4)cc3OC)nc2N1C(C)C [volasertib]
Procedure, shortened: as §1

[3] = compound: CCn1c(C(=O)N(C2CC2)C2CC2)cc2c3c(ncn3C)c(Nc3cc(C)n(C)n3)nc21
Procedure, shortened: as §1

[4] = compound: CCn1cc(-c2ccnc3[nH]c(-c4cccc(CN(C)C)c4)cc23)c(-c2ccc(NC(=O)N(C)C)cc2)n1
Procedure, shortened: as §1

[5] = compound: CN1CCC(CNc2ccc3ncc(-c4cccc(OC(F)(F)F)c4)n3n2)CC1
Procedure, shortened: as §1

saracatinib = compound: CN1CCN(CCOc2cc(OC3CCOCC3)c3c(Nc4c(Cl)ccc5c4OCO5)ncnc3c2)CC1 [saracatinib]
Procedure, shortened: as §1

sotrastaurin = compound: CN1CCN(c2nc(C3=C(c4c[nH]c5ccccc45)C(=O)NC3=O)c3ccccc3n2)CC1 [sotrastaurin]
Procedure, shortened: as §1

alvocidib = compound: CN1CC[C@H](c2c(O)cc(O)c3c(=O)cc(-c4ccccc4Cl)oc23)[C@H](O)C1 [alvocidib]
Procedure, shortened: as §1

Tubastatin A = compound: CN1CCc2c(c3ccccc3n2Cc2ccc(C(=O)NO)cc2)C1 [Tubastatin A]
Procedure, shortened: as §1

[6] = compound: CNC(=O)C1=CC=CC=C1NC2=NC(=NC=C2Cl)NC3=C(C=C(C=C3)N4CCOCC4)OC
Procedure, shortened: as §1

defactinib = compound: CNC(=O)c1ccc(Nc2ncc(C(F)(F)F)c(NCc3nccnc3N(C)S(C)(=O)=O)n2)cc1 [defactinib]
Procedure, shortened: as §1

[7] = compound: CNc1nc(-c2ccc3c(N)n[nH]c3c2)cc(N2C[C@@H](C(=O)NC3CCCCC3)CC[C@H]2C)n1
Procedure, shortened: as §1

encorafenib = compound: COC(=O)N[C@@H](C)CNc1nccc(-c2cn(C(C)C)nc2-c2cc(Cl)cc(NS(C)(=O)=O)c2F)n1 [encorafenib]
Procedure, shortened: as §1

[8] = compound: COC(=O)[C@H](CCSC)NC(=O)C1=C(C=C(C=C1)NC[C@H](CS)N)C2=CC=CC=C2
Procedure, shortened: as §1

alisertib = compound: COc1cc(Nc2ncc3c(n2)-c2ccc(Cl)cc2C(c2c(F)cccc2OC)=NC3)ccc1C(=O)O [alisertib]
Procedure, shortened: as §1

[9] = compound: COc1cc2nc(-c3cc(F)ccc3O)nc(N[C@@H]3CNC[C@H]3C(C)(C)O)c2cc1OC
Procedure, shortened: as §1

gefitinib = compound: COc1cc2ncnc(Nc3ccc(F)c(Cl)c3)c2cc1OCCCN1CCOCC1 [gefitinib]
Procedure, shortened: as §1

Measured: log2 fold change

ELL (UniProt P55199)
inactive: vemurafenib 0.119 | [1] 0.035 | barasertib -0.055 | [2] -0.017 | volasertib -0.034 | [3] 0.002 | [4] 0.145 | [5] -0.076 | saracatinib 0.05 | sotrastaurin 0.061 | alvocidib 0.01 | Tubastatin A -0.038 | [6] 0.042 | defactinib -0.004 | [7] -0.09 | encorafenib -0.014 | [8] 0.017 | alisertib 0.022 | [9] 0.022 | gefitinib 0.087

EIF2AK2 (UniProt P19525)
inactive: vemurafenib 0.025 | [1] 0.012 | barasertib -0.038 | [2] -0.09 | volasertib -0.03 | [3] -0.008 | [4] -0.081 | [5] 0.067 | saracatinib -0.011 | sotrastaurin 0.007 | alvocidib 0.004 | Tubastatin A -0.099 | [6] 0.091 | defactinib 0.049 | [7] 0.083 | encorafenib 0.087 | [8] 0.153 | alisertib 0.003 | [9] 0.029 | gefitinib -0.055

EIF5A isoform 2 (UniProt P63241)
inactive: vemurafenib -0.01 | [1] -0.019 | barasertib -0.004 | [2] 0.05 | volasertib 0.036 | [3] -0.049 | [4] 0.088 | [5] -0.029 | saracatinib -0.022 | sotrastaurin -0.039 | alvocidib 0.014 | Tubastatin A 0.014 | [6] -0.025 | defactinib -0.017 | [7] 0.026 | encorafenib -0.014 | [8] -0.04 | alisertib 0.005 | [9] 0.003 | gefitinib -0.049

ENSA isoform 3 (UniProt O43768)
inactive: vemurafenib -0.034 | [1] -0.016 | barasertib -0.052 | [2] 0.049 | volasertib 0.025 | [3] 0.033 | [4] 0.212 | [5] -0.058 | saracatinib -0.021 | sotrastaurin -0.007 | alvocidib 0.015 | Tubastatin A -0.038 | [6] -0.012 | defactinib 0.03 | [7] -0.027 | encorafenib -0.024 | [8] -0.053 | alisertib -0.014 | [9] 0.001 | gefitinib 0.001

EIF3C (UniProt Q99613)
inactive: vemurafenib 0 | [1] 0.007 | barasertib 0.017 | [2] -0.06 | volasertib -0.041 | [3] 0.024 | [4] -0.073 | [5] 0.009 | saracatinib 0.019 | sotrastaurin -0.015 | alvocidib 0.006 | Tubastatin A -0.02 | [6] 0.069 | defactinib -0.028 | [7] -0.033 | encorafenib -0.001 | [8] 0.1 | alisertib 0.018 | [9] -0.004 | gefitinib -0.02

EIF2B2 (UniProt P49770)
inactive: vemurafenib -0.063 | [1] 0.03 | barasertib 0.016 | [2] -0.089 | volasertib -0.004 | [3] 0.023 | [4] 0.029 | [5] -0.055 | saracatinib 0.012 | sotrastaurin 0.026 | alvocidib 0.004 | Tubastatin A -0.061 | [6] 0.014 | defactinib -0.013 | [7] -0.063 | encorafenib 0.036 | [8] -0.066 | alisertib 0.025 | [9] 0.02 | gefitinib 0.01

EIF3G (UniProt K7ER90)
inactive: vemurafenib 0.137 | [1] -0.02 | barasertib 0.284 | [2] 0 | volasertib -0.038 | [3] 0.112 | [4] -0.046 | [5] 0.177 | saracatinib 0.045 | sotrastaurin 0.008 | alvocidib 0.007 | Tubastatin A 0.103 | [6] 0.015 | defactinib -0.162 | [7] 0.009 | encorafenib -0.013 | [8] -0.061 | alisertib 0.025 | [9] -0.01 | gefitinib 0.14

Reprinted from the listing (five entries):
EIF2AK2 (UniProt P19525)
inactive: vemurafenib 0.025 | [1] 0.012 | barasertib -0.038 | [2] -0.09 | volasertib -0.03 | [3] -0.008 | [4] -0.081 | [5] 0.067 | saracatinib -0.011 | sotrastaurin 0.007 | alvocidib 0.004 | Tubastatin A -0.099 | [6] 0.091 | defactinib 0.049 | [7] 0.083 | encorafenib 0.087 | [8] 0.153 | alisertib 0.003 | [9] 0.029 | gefitinib -0.055

EIF5A isoform 2 (UniProt P63241)
inactive: vemurafenib -0.01 | [1] -0.019 | barasertib -0.004 | [2] 0.05 | volasertib 0.036 | [3] -0.049 | [4] 0.088 | [5] -0.029 | saracatinib -0.022 | sotrastaurin -0.039 | alvocidib 0.014 | Tubastatin A 0.014 | [6] -0.025 | defactinib -0.017 | [7] 0.026 | encorafenib -0.014 | [8] -0.04 | alisertib 0.005 | [9] 0.003 | gefitinib -0.049

ENSA isoform 3 (UniProt O43768)
inactive: vemurafenib -0.034 | [1] -0.016 | barasertib -0.052 | [2] 0.049 | volasertib 0.025 | [3] 0.033 | [4] 0.212 | [5] -0.058 | saracatinib -0.021 | sotrastaurin -0.007 | alvocidib 0.015 | Tubastatin A -0.038 | [6] -0.012 | defactinib 0.03 | [7] -0.027 | encorafenib -0.024 | [8] -0.053 | alisertib -0.014 | [9] 0.001 | gefitinib 0.001

EIF3C (UniProt Q99613)
inactive: vemurafenib 0 | [1] 0.007 | barasertib 0.017 | [2] -0.06 | volasertib -0.041 | [3] 0.024 | [4] -0.073 | [5] 0.009 | saracatinib 0.019 | sotrastaurin -0.015 | alvocidib 0.006 | Tubastatin A -0.02 | [6] 0.069 | defactinib -0.028 | [7] -0.033 | encorafenib -0.001 | [8] 0.1 | alisertib 0.018 | [9] -0.004 | gefitinib -0.02

EIF2B2 (UniProt P49770)
inactive: vemurafenib -0.063 | [1] 0.03 | barasertib 0.016 | [2] -0.089 | volasertib -0.004 | [3] 0.023 | [4] 0.029 | [5] -0.055 | saracatinib 0.012 | sotrastaurin 0.026 | alvocidib 0.004 | Tubastatin A -0.061 | [6] 0.014 | defactinib -0.013 | [7] -0.063 | encorafenib 0.036 | [8] -0.066 | alisertib 0.025 | [9] 0.02 | gefitinib 0.01

The list continues:

EPS15L1 (UniProt M0QY01)
inactive: vemurafenib 0.062 | [1] 0 | [2] -0.046 | volasertib -0.019 | [4] -0.035 | [5] 0.049 | saracatinib 0.14 | alvocidib -0.011 | [6] 0.037 | defactinib 0.04 | [7] 0.079 | encorafenib -0.004 | [8] -0.021 | [9] 0.026

EIF4G3, A0A0U1RQK7
inactive: vemurafenib 0.009 | [1] 0.029 | barasertib 0.013 | [2] -0.004 | volasertib -0.023 | [3] 0.051 | [4] -0.05 | [5] 0.038 | saracatinib 0.046 | sotrastaurin 0.032 | alvocidib 0.013 | Tubastatin A -0.072 | [6] 0.021 | defactinib 0.031 | [7] 0.015 | encorafenib 0.024 | [8] 0.086 | alisertib 0.018 | [9] 0.022 | gefitinib 0.02

EPB41, A0A2R8Y6D0
inactive: vemurafenib -0.019 | [1] -0.004 | barasertib 0.043 | [2] -0.108 | volasertib 0.006 | [3] -0.24 | [4] -0.047 | saracatinib -0.082 | sotrastaurin 0.044 | alvocidib -0.015 | Tubastatin A -0.033 | [6] 0.114 | defactinib 0.098 | [7] -0.178 | encorafenib 0.029 | [8] 0.052 | alisertib 0.165 | [9] -0.014 | gefitinib 0.407
active: [5] 0.594

ENOPH1 (UniProt Q9UHY7)
inactive: vemurafenib -0.016 | [1] 0.03 | barasertib 0.077 | [2] -0.018 | volasertib -0.016 | [3] 0.003 | [4] 0.021 | [5] 0.006 | saracatinib 0.005 | sotrastaurin 0.035 | alvocidib 0.032 | Tubastatin A -0.004 | [6] 0.026 | defactinib 0.025 | [7] -0.017 | encorafenib -0.035 | [8] 0.058 | alisertib -0.034 | [9] -0.003 | gefitinib -0.023

ELP3 (UniProt Q9H9T3)
inactive: vemurafenib -0.004 | [1] 0.019 | barasertib 0.018 | [2] -0.016 | volasertib -0.02 | [3] -0.012 | [4] -0.005 | [5] 0.002 | saracatinib -0.019 | sotrastaurin 0.011 | alvocidib 0.013 | Tubastatin A 0.004 | [6] -0.011 | defactinib 0.002 | [7] -0.006 | encorafenib 0.025 | [8] -0.066 | alisertib 0.012 | [9] -0.002 | gefitinib -0.001

ELOVL5 isoform 2 (UniProt Q9NYP7)
inactive: vemurafenib -0.079 | [1] -0.028 | barasertib 0.057 | [2] -0.076 | volasertib -0.09 | [3] 0.075 | [4] -0.104 | [5] 0.047 | saracatinib 0.075 | sotrastaurin 0.071 | alvocidib -0.033 | Tubastatin A -0.134 | defactinib -0.028 | [7] -0.12 | encorafenib 0.074 | [8] -0.081 | alisertib 0.098 | [9] -0.036 | gefitinib 0.042

EPB41, A0A2R8Y783
inactive: vemurafenib 0.129 | [1] 0.063 | barasertib 0.112 | [2] -0.141 | volasertib 0.057 | [4] -0.136 | [5] -0.048 | saracatinib 0.075 | alvocidib -0.248 | defactinib 0.05 | [7] -0.13 | encorafenib -0.523 | [8] 0.118 | [9] 0.029

EOGT (UniProt Q5NDL2)
inactive: vemurafenib 0.007 | [1] 0.032 | barasertib 0.059 | [2] 0.031 | volasertib 0.003 | [3] -0.018 | [4] 0.029 | [5] -0.005 | saracatinib 0.008 | sotrastaurin 0.031 | alvocidib 0.006 | Tubastatin A 0.114 | [6] 0.016 | defactinib -0.002 | [7] 0.076 | encorafenib -0.023 | [8] 0.009 | alisertib -0.097 | [9] 0.03 | gefitinib 0

ERGIC2 (UniProt Q96RQ1)
inactive: vemurafenib -0.006 | [1] 0 | barasertib 0.125 | [2] -0.048 | volasertib -0.028 | [3] 0.001 | [4] 0.064 | [5] -0.045 | saracatinib -0.032 | sotrastaurin -0.016 | alvocidib 0.033 | Tubastatin A 0.015 | [6] -0.028 | defactinib 0.057 | [7] 0.095 | encorafenib 0.057 | [8] -0.117 | alisertib -0.032 | [9] -0.111 | gefitinib -0.009

ENO1, A0A2R8YEM5
active: [4] -0.44 | [5] 0.325
inactive: vemurafenib -0.03 | [1] -0.017 | barasertib -0.056 | [2] 0.008 | volasertib 0.004 | [3] -0.04 | saracatinib 0.031 | sotrastaurin -0.011 | alvocidib -0.256 | Tubastatin A 0.104 | [6] 0.021 | defactinib 0.043 | [7] 0.002 | encorafenib 0.031 | [8] -0.035 | alisertib 0.006 | [9] -0.001 | gefitinib 0.035
